No constants are given. Whether binding was seen depends on the method and setting. Binding seen in cells or lysates may run through a third protein. Some entries that bind do so weakly or less than the wild type.

The test addresses T1, IRF4 transcription factor (human (endogenous in MM.1S)) (UniProt Q15306).
T1 sequence: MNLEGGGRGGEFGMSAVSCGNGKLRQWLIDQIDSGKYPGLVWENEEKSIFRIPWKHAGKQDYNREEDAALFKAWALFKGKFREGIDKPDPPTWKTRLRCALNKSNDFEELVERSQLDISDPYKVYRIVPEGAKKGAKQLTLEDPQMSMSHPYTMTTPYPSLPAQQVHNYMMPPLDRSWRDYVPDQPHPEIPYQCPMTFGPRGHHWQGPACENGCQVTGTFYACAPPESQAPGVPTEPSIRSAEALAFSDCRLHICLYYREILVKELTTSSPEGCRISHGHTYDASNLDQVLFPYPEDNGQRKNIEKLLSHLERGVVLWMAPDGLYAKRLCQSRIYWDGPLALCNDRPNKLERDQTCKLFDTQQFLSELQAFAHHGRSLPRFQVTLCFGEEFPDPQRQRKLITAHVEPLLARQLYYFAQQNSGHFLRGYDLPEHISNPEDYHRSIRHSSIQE
The test can be described thus: co-IP; 5 ug anti-IRF4 (F-4) agarose conjugate on 50 ug desalted nuclear protein of MM.1S cells exposed to Dex or EtOH for 1 h, overnight at 2-8 C, washed twice with cold PBS; Western blot with IRF4 and GR antibodies. (In general: Immunoblotting shows a protein as a band on a membrane.)

For “glucocorticoid receptor (from UniProt P04150 1-777)”, the binding result is listed as “binds”.

The values above are taken from PMC10390781.
